Reference: paper PMC3711543
Results are given in words; binding and its absence hold for the method and conditions named. In cells and extracts the contact can be indirect. Some results given as binding are weak or reduced against the parent protein; the word gives no strength. Tags and fused reporters may be left off the sequences shown.

Amino acid sequences for entries named in this document (tags omitted).
UniProt O74456: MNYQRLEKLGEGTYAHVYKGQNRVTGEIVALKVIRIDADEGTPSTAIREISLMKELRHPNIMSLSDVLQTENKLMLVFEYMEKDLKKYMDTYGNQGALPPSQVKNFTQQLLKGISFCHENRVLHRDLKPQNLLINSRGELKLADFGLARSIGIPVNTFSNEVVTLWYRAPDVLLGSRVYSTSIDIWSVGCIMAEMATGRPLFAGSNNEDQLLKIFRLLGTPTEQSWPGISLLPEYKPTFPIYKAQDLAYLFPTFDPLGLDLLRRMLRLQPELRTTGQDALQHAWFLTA

How the values were obtained:
[1] = biological target: T1, FLAG-Psl1p (FLAG-Spbc20f10.10p) (S. pombe) (UniProt O42979); experiment: co-IP; S. pombe lysate (~5 mg) with anti-FLAG (M2) antibody and protein G Sepharose, 150 mM NaCl, 4 hr at 4°C; Western blot with anti-HA and anti-FLAG
T1 sequence: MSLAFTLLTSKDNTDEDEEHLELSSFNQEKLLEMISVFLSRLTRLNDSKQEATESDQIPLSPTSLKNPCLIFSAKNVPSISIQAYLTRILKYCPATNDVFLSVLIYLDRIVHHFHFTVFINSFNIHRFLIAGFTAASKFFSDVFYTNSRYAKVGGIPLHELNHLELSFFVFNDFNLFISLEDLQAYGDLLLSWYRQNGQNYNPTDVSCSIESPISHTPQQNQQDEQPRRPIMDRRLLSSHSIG

[2] = biological target: T2, FLAG-Cek1p (N-terminally FLAG-tagged Cek1p) (S. pombe) (UniProt P38938); experiment: as above
T2 sequence: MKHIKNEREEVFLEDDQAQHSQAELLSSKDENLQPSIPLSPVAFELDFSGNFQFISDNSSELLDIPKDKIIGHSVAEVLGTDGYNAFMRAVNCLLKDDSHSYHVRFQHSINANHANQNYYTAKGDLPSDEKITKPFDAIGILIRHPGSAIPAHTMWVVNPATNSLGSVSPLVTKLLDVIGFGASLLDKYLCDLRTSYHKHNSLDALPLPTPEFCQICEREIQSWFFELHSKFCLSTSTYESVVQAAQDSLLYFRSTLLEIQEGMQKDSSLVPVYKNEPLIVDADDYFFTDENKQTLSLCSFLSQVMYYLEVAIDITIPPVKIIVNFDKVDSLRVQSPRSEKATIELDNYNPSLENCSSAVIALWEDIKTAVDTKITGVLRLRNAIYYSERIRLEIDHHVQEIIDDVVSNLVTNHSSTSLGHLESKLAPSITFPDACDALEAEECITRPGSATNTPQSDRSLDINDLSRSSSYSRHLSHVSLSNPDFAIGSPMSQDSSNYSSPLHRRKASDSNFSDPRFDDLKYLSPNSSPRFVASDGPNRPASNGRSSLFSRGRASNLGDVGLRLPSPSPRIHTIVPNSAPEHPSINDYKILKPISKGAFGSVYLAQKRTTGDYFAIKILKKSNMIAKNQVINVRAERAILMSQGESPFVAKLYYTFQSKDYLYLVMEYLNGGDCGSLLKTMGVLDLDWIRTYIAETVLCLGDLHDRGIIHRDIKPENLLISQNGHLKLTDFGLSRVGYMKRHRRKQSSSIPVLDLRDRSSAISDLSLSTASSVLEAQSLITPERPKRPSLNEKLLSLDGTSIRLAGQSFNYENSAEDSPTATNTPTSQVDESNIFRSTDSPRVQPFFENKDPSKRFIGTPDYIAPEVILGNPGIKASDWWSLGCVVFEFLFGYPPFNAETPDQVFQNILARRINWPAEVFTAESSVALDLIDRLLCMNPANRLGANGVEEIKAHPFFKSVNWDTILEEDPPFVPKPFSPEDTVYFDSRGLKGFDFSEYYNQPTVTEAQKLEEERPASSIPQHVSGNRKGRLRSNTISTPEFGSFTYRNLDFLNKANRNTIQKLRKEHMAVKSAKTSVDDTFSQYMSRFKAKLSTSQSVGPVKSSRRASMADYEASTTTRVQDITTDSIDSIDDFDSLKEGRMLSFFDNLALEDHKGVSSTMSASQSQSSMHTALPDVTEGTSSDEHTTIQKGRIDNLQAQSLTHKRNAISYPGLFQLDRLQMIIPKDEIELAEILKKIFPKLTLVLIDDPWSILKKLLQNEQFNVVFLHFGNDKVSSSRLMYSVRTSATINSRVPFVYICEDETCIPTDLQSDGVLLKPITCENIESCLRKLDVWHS

Question: What does the source list for “Pef1p-3HA (triple HA-tagged Pef1p) (from UniProt O74456 1-288)”?
Answer: binding [1]: binds; binding [2]: binds
